Measurements as given in patent US20110190155A1, “MARKER GENES BASED ON AMIODARONE TREATMENT FOR SCREENING OF DRUG INDUCING PULMONARY TOXICITY AND SCREENING METHODS USING THE SAME” (Korea Institute of Science and Technology, priority 2007, published 2011).

Tests used:
BEAS-2B cells [1] = system: BEAS-2B cells
[2] = cited from earlier work
BEAS-2B cells [3] = conditions: gene NM_004265; BEAS-2B treated with amiodarone

## CCCCc1oc2ccccc2c1C(=O)c1cc(I)c(OCCN(CC)CC)c(I)c1 [amiodarone]
BEAS-2B cells [1]; gene Fatty acid desaturase 2, NM_004265, up-regulated, amiodarone at IC20, 48 hours
  Ratio of intermediate value, FADS2: 2.032
BEAS-2B cells [1]; gene NM_004265, Table 5, BEAS-2B treated with amiodarone
  cDNA microarray (Cy3/Cy5 ratio), Fatty acid desaturase 2: 3.498
[2]; among the patients exhibiting side effects
  patients with pulmonary toxicity: 5-15%
[2]; patients treated with amiodarone
  patients with rash or other skin disorders changing skin color into blue gray, ecchymosis, alopecia, and hypotension: less than 1%
BEAS-2B cells [3]
  Real time PCR (relative ratio), Fatty acid desaturase 2: 2.0322
